Measurements reported in PubChem BioAssay AID1224830 (NIAID, 2016).
Shown is an unselected part of about 18,000 reagents. In the full data, about 2,900 (16%) are marked active. 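Calls are made per well; low scores hint the gene aids the LPS response, high scores that it dampens it.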 Repeated entries: four replicate wells of each siRNA pool.

Screen: 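Genes whose knock-down alters the TNF-alpha reporter response to LPS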 (primary screen)
Cells: human THP-1 monocytic leukaemia cells, TNF dual-luciferase reporter clone, PMA-differentiated to macrophage-like cells
Knock-down reagent: siRNA pool against human genes, 50 nM
Duration: LPS for 4 h, given about 3 days after siRNA transfection
Challenge: bacterial LPS (TLR4 ligand), 10 ng/ml
Detection: 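Ratio of firefly to renilla light, scaled to the plate median and expressed as a robust z-score per replicate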
Scale: TNF reporter robust z-score: higher = stronger TNF reporter response to LPS
Rule for the call: 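a well is active when its z-score exceeds 2.8 or falls below -1.5; control wells carry no call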

MTA1 (metastasis associated 1) [SID315453051] scored TNF reporter robust z-score 0; inactive.
After knock-down of MTA1 (metastasis associated 1) [SID315453051], the record shows TNF reporter robust z-score 0.99; inactive.
MTA1 (metastasis associated 1) [SID315453051] gave TNF reporter robust z-score -0.1; inactive.
MTA1 (metastasis associated 1) [SID315453051] scored TNF reporter robust z-score -0.05; inactive.
For ANXA2 (annexin A2) [SID315447322], the entry reads TNF reporter robust z-score -0.41; inactive.
Silencing of ANXA2 (annexin A2) [SID315447322] resulted in: TNF reporter robust z-score -0.1; inactive.
Against ANXA2 (annexin A2) [SID315447322] the deposit lists TNF reporter robust z-score -0.9; inactive.
Depletion of ANXA2 (annexin A2) [SID315447322] resulted in: TNF reporter robust z-score -0.88; inactive.
Against GLUD2 (glutamate dehydrogenase 2) [SID315448929], the entry reads TNF reporter robust z-score -0.02; inactive.
Against GLUD2 (glutamate dehydrogenase 2) [SID315448929] the deposit lists TNF reporter robust z-score 0.32; inactive.
For GLUD2 (glutamate dehydrogenase 2) [SID315448929], the values are TNF reporter robust z-score -0.92; inactive.
For GLUD2 (glutamate dehydrogenase 2) [SID315448929], the entry reads TNF reporter robust z-score -0.18; inactive.
Against GOT1 (glutamic-oxaloacetic transaminase 1) [SID315448970] the deposit lists TNF reporter robust z-score -0.16; inactive.
Silencing of GOT1 (glutamic-oxaloacetic transaminase 1) [SID315448970] came out at: TNF reporter robust z-score 0.56; inactive.
Against GOT1 (glutamic-oxaloacetic transaminase 1) [SID315448970], the entry reads TNF reporter robust z-score 0.94; inactive.
Depletion of GOT1 (glutamic-oxaloacetic transaminase 1) [SID315448970] came out at: TNF reporter robust z-score 0.72; inactive.
With knock-down of WWC2 (WW and C2 domain containing 2) [SID315459622] the results were TNF reporter robust z-score -0.22; inactive.
Knock-down of WWC2 (WW and C2 domain containing 2) [SID315459622] gave: TNF reporter robust z-score -0.11; inactive.
Against WWC2 (WW and C2 domain containing 2) [SID315459622], the entry reads TNF reporter robust z-score 0.72; inactive.
After knock-down of WWC2 (WW and C2 domain containing 2) [SID315459622], the screen gave TNF reporter robust z-score -0.21; inactive.
With knock-down of ITPR2 (inositol 1,4,5-trisphosphate receptor type 2) [SID315449576], the record shows TNF reporter robust z-score 0.26; inactive.
With knock-down of ITPR2 (inositol 1,4,5-trisphosphate receptor type 2) [SID315449576] the results were TNF reporter robust z-score 2.77; inactive.
Silencing of ITPR2 (inositol 1,4,5-trisphosphate receptor type 2) [SID315449576] resulted in: TNF reporter robust z-score 2; inactive.
For ITPR2 (inositol 1,4,5-trisphosphate receptor type 2) [SID315449576] the deposit lists TNF reporter robust z-score 3.61; active.
RPS6KB1 (ribosomal protein S6 kinase B1) [SID315451223] showed TNF reporter robust z-score -0.17; inactive.
Depletion of RPS6KB1 (ribosomal protein S6 kinase B1) [SID315451223] gave: TNF reporter robust z-score 1.42; inactive.
RPS6KB1 (ribosomal protein S6 kinase B1) [SID315451223] scored TNF reporter robust z-score 0.84; inactive.
Knock-down of RPS6KB1 (ribosomal protein S6 kinase B1) [SID315451223] came out at: TNF reporter robust z-score 0.98; inactive.
For ZNF436-AS1 (ZNF436 antisense RNA 1) [SID315462397], the entry reads TNF reporter robust z-score -0.23; inactive.
Knock-down of ZNF436-AS1 (ZNF436 antisense RNA 1) [SID315462397] resulted in: TNF reporter robust z-score 1.42; inactive.
With knock-down of ZNF436-AS1 (ZNF436 antisense RNA 1) [SID315462397] the results were TNF reporter robust z-score -0.77; inactive.
ZNF436-AS1 (ZNF436 antisense RNA 1) [SID315462397] gave TNF reporter robust z-score -1.02; inactive.

6 successive records from above, for reference:
ITPR2 (inositol 1,4,5-trisphosphate receptor type 2) [SID315449576] → TNF reporter robust z-score = 2; outcome = inactive
ITPR2 (inositol 1,4,5-trisphosphate receptor type 2) [SID315449576] → TNF reporter robust z-score = 3.61; outcome = active
RPS6KB1 (ribosomal protein S6 kinase B1) [SID315451223] → TNF reporter robust z-score = -0.17; outcome = inactive
RPS6KB1 (ribosomal protein S6 kinase B1) [SID315451223] → TNF reporter robust z-score = 1.42; outcome = inactive
RPS6KB1 (ribosomal protein S6 kinase B1) [SID315451223] → TNF reporter robust z-score = 0.84; outcome = inactive
RPS6KB1 (ribosomal protein S6 kinase B1) [SID315451223] → TNF reporter robust z-score = 0.98; outcome = inactive

Next records follow.
For KDM7A (lysine demethylase 7A) [SID315459830], the entry reads TNF reporter robust z-score -1.22; inactive.
KDM7A (lysine demethylase 7A) [SID315459830] scored TNF reporter robust z-score -1.16; inactive.
KDM7A (lysine demethylase 7A) [SID315459830] showed TNF reporter robust z-score -2.45; active.
Knock-down of KDM7A (lysine demethylase 7A) [SID315459830] came out at: TNF reporter robust z-score -2.25; active.
With knock-down of MBD4 (methyl-CpG binding domain 4, DNA glycosylase) [SID315452935], the screen gave TNF reporter robust z-score -0.62; inactive.
Depletion of MBD4 (methyl-CpG binding domain 4, DNA glycosylase) [SID315452935] came out at: TNF reporter robust z-score 0.52; inactive.
MBD4 (methyl-CpG binding domain 4, DNA glycosylase) [SID315452935] gave TNF reporter robust z-score 0.08; inactive.
MBD4 (methyl-CpG binding domain 4, DNA glycosylase) [SID315452935] showed TNF reporter robust z-score 0.4; inactive.
With knock-down of ITM2A (integral membrane protein 2A) [SID315453296] the results were TNF reporter robust z-score 2.9; active.
Against ITM2A (integral membrane protein 2A) [SID315453296] the deposit lists TNF reporter robust z-score 1.57; inactive.
Knock-down of ITM2A (integral membrane protein 2A) [SID315453296] gave: TNF reporter robust z-score 2.36; inactive.
Knock-down of ITM2A (integral membrane protein 2A) [SID315453296] gave: TNF reporter robust z-score 1.23; inactive.
Against PIAS4 (protein inhibitor of activated STAT 4) [SID315456794] the deposit lists TNF reporter robust z-score -0.6; inactive.
After knock-down of PIAS4 (protein inhibitor of activated STAT 4) [SID315456794] the results were TNF reporter robust z-score -0.39; inactive.
PIAS4 (protein inhibitor of activated STAT 4) [SID315456794] scored TNF reporter robust z-score -0.76; inactive.
Against PIAS4 (protein inhibitor of activated STAT 4) [SID315456794], the entry reads TNF reporter robust z-score -1.05; inactive.
Silencing of KANSL2 (KAT8 regulatory NSL complex subunit 2) [SID315457278] came out at: TNF reporter robust z-score -0.36; inactive.
With knock-down of KANSL2 (KAT8 regulatory NSL complex subunit 2) [SID315457278] the results were TNF reporter robust z-score -0.13; inactive.
Silencing of KANSL2 (KAT8 regulatory NSL complex subunit 2) [SID315457278] came out at: TNF reporter robust z-score -0.47; inactive.
Silencing of KANSL2 (KAT8 regulatory NSL complex subunit 2) [SID315457278] gave: TNF reporter robust z-score -0.04; inactive.
KLHL21 (kelch like family member 21) [SID315453661] scored TNF reporter robust z-score 1.47; inactive.
KLHL21 (kelch like family member 21) [SID315453661] showed TNF reporter robust z-score 0.2; inactive.
With knock-down of KLHL21 (kelch like family member 21) [SID315453661], the record shows TNF reporter robust z-score 0.46; inactive.
KLHL21 (kelch like family member 21) [SID315453661] gave TNF reporter robust z-score 0.78; inactive.
Silencing of HRH4 (histamine receptor H4) [SID315458681] gave: TNF reporter robust z-score -0.82; inactive.
HRH4 (histamine receptor H4) [SID315458681] gave TNF reporter robust z-score -0.61; inactive.
With knock-down of HRH4 (histamine receptor H4) [SID315458681], the screen gave TNF reporter robust z-score -0.76; inactive.
Silencing of HRH4 (histamine receptor H4) [SID315458681] gave: TNF reporter robust z-score -0.22; inactive.
